# Assay results reported in the supplement of paper PMC6411743.
# By UniProt entry, the sequences of proteins in these tests, tags left out. Where a name states a change or a piece, a line headed by the entry shows the natural chain unless it says otherwise.
# UniProt Q9BQ61: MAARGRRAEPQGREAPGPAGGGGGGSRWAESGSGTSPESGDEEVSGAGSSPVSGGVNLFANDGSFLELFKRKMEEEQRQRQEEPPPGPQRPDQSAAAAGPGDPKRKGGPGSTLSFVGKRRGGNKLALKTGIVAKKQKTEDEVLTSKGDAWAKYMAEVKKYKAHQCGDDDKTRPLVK
# UniProt Q9BRG1: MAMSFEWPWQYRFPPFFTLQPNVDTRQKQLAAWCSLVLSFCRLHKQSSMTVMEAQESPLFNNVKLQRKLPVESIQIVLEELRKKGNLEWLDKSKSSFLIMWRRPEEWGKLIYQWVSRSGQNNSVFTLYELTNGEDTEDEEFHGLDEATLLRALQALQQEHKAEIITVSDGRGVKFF
# UniProt Q96PU4: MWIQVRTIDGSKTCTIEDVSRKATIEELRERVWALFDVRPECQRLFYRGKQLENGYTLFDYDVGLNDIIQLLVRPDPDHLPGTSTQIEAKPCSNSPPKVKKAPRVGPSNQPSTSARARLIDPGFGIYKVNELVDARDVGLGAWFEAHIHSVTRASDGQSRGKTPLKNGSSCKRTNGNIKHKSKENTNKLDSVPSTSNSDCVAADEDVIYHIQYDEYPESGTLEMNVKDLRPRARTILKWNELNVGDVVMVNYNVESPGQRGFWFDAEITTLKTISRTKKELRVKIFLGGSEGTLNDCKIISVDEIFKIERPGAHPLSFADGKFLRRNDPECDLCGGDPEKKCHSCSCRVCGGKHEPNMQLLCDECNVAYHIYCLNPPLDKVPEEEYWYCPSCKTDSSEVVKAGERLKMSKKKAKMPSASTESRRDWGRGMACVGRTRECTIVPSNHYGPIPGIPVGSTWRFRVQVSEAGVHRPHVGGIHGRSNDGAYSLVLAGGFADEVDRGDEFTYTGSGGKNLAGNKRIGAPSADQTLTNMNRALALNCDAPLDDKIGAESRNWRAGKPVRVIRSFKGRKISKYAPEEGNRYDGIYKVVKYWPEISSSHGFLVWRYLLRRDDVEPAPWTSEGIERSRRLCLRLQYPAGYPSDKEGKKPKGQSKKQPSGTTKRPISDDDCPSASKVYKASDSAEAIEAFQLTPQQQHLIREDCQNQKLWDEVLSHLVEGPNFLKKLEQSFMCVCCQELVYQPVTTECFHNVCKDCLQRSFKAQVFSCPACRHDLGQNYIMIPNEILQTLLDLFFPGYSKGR
# UniProt Q99943: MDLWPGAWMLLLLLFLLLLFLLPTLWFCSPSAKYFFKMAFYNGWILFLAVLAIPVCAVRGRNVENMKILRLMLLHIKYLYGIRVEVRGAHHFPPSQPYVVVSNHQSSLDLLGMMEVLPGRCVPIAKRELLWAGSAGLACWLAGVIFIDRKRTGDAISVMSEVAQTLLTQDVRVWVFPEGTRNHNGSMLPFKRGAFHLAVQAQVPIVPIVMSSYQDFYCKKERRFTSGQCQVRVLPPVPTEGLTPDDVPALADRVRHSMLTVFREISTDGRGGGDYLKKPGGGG
# UniProt Q9BRS2: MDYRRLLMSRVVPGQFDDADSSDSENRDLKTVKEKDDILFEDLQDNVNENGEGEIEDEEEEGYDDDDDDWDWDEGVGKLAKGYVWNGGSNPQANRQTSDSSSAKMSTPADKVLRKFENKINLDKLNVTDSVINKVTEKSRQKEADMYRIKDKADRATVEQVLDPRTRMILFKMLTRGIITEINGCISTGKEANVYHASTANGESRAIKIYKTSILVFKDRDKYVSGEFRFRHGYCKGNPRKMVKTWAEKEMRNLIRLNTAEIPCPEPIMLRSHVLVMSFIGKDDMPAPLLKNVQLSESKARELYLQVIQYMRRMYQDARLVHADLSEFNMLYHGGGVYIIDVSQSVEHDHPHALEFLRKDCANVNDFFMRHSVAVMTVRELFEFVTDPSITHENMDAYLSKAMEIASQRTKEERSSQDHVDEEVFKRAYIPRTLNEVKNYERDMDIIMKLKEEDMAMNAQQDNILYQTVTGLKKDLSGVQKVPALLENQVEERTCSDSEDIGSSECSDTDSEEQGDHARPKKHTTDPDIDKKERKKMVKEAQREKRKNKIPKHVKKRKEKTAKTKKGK
# UniProt Q96S94: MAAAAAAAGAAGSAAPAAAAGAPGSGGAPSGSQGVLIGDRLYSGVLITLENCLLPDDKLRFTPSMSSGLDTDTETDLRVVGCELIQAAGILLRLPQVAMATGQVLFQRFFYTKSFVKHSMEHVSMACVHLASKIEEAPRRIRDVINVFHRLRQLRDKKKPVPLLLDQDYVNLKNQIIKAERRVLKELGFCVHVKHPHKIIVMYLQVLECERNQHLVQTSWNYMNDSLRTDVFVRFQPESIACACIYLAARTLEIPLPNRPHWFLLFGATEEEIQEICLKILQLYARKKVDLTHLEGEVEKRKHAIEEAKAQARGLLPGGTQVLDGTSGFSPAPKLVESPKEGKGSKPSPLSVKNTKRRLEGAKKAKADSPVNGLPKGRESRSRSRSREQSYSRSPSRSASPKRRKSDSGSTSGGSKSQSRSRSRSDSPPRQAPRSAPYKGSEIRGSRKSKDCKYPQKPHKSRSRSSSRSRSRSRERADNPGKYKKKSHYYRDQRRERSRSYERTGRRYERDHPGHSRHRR
# UniProt Q99633: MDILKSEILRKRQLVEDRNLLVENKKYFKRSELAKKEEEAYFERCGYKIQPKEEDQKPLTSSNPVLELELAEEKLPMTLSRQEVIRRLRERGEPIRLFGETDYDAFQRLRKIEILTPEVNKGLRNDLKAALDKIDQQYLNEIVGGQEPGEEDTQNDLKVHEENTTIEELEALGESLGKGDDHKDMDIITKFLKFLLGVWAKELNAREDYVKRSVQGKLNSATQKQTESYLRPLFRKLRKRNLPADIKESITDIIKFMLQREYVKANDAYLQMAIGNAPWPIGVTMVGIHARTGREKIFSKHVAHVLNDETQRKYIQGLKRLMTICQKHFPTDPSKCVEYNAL
# UniProt Q96N16: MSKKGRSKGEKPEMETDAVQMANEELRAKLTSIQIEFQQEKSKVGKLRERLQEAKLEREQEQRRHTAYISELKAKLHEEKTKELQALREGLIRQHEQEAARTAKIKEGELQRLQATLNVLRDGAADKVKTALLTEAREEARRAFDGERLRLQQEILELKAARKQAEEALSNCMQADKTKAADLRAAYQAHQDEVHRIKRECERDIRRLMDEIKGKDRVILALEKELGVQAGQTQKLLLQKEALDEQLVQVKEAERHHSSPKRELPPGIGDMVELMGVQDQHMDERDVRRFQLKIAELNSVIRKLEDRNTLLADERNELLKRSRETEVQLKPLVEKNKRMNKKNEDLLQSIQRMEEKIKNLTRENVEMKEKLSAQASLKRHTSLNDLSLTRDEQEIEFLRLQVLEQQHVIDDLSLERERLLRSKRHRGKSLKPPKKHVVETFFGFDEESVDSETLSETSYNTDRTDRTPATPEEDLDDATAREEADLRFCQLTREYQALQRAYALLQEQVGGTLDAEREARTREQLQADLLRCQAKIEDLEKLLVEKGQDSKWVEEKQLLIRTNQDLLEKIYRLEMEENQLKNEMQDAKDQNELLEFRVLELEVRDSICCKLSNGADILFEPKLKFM
# UniProt Q99797: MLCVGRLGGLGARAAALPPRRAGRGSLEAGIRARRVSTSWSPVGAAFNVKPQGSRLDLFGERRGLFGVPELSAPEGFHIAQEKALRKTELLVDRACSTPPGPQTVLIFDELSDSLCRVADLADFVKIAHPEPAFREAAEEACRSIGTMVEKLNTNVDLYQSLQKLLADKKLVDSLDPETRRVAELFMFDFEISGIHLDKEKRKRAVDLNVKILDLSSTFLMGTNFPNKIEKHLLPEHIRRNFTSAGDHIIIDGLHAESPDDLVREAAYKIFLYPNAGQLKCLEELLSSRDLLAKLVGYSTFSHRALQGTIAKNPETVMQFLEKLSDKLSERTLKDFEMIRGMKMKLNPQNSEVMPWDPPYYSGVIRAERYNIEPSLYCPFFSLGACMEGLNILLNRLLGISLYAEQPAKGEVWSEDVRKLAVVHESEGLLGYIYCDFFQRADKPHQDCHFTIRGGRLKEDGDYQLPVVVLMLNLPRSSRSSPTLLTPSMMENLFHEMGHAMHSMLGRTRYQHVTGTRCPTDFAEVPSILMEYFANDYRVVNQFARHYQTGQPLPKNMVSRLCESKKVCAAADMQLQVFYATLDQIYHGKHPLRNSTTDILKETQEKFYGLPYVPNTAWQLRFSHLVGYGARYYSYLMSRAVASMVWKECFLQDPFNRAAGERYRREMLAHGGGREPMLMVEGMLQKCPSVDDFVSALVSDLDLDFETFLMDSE
# UniProt Q99714: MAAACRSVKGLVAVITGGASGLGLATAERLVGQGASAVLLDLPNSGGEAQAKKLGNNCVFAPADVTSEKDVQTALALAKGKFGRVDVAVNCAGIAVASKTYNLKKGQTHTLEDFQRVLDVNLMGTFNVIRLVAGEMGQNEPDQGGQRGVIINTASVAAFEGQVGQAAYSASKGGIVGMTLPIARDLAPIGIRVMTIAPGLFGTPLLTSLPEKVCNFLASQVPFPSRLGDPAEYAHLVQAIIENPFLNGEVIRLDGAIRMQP
# UniProt Q9BZ95: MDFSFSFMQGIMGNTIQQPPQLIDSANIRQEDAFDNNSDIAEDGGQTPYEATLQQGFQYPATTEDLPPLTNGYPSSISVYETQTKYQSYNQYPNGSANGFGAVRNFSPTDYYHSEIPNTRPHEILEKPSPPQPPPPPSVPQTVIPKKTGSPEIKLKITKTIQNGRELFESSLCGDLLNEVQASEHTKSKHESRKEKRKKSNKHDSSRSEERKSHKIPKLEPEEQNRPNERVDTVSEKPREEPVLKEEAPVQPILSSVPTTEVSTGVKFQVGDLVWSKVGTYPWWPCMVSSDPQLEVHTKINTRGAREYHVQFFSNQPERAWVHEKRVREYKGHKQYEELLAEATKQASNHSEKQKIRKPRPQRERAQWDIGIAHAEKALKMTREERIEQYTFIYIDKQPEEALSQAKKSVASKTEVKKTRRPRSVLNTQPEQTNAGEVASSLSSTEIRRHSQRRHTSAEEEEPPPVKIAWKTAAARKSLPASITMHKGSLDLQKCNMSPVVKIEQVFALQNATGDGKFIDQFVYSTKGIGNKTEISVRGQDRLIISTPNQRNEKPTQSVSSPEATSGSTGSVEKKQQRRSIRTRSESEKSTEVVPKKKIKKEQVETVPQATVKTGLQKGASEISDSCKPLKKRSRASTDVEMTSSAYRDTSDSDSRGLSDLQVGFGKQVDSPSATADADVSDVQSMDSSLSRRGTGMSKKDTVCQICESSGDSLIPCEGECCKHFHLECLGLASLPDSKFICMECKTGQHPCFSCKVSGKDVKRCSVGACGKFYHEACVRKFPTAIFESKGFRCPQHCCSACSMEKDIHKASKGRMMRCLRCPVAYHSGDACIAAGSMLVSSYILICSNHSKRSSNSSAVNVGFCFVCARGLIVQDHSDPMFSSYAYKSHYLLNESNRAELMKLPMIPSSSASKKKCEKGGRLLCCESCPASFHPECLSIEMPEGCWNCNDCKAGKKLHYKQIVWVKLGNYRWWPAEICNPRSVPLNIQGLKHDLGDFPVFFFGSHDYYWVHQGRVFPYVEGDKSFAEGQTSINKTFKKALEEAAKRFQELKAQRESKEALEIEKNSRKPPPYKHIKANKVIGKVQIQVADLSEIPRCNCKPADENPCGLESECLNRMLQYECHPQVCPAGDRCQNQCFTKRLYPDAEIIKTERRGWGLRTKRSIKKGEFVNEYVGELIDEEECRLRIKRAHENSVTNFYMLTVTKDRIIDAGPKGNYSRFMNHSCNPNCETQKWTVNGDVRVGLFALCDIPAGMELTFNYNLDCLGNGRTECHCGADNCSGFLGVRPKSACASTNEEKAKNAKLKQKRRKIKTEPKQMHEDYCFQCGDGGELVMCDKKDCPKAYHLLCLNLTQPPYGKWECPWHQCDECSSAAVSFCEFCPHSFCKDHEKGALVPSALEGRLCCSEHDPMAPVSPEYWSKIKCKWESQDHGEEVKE
# UniProt Q9BTZ2: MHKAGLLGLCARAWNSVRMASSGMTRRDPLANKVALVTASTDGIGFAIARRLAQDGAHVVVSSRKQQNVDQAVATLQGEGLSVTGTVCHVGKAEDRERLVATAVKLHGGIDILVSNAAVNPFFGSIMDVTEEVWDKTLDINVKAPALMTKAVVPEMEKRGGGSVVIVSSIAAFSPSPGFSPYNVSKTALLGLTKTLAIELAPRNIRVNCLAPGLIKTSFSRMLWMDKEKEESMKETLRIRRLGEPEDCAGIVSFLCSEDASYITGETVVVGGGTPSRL
# UniProt Q9BW83: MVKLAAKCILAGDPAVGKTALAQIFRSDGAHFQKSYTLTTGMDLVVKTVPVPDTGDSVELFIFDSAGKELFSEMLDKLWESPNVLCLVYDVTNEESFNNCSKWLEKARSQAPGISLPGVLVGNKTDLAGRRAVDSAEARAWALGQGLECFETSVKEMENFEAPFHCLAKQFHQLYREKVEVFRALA
# UniProt Q9BV81: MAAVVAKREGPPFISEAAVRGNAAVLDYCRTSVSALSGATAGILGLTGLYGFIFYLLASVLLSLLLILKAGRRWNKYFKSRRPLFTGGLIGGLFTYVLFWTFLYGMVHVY
# ± gives the standard deviation of the averaged measurements. The list shows a part of the results.
# Compound: Nc1nc2c(ncn2[C@@H]2O[C@H](COP(=O)(O)OP(=O)(O)OP(=O)(O)O)[C@@H](O)[C@H]2O)c(=O)[nH]1 [guanosine triphosphate]
# Test: NP40-soluble protein abundance relative to vehicle (solubility fold change) (ratio); higher = more soluble protein in presence of GTP
# Procedure, shortened: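 Each value is a fold change relative to the detergent-processed vehicle, calculated per replicate from vsn-normalised intensities. Jurkat crude lysate received eight concentrations (0.1 to 10 mM) for 10 min at room temperature and 3 min at 37 °C, then was solubilised in 0.8% NP40 with benzonase (60 min, 4 °C). The ultracentrifuged supernatant was TMT-labelled and run by LC-MS/MS in three independent experiments.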
Target,NP40-soluble protein abundance (concentration: 0.1mM),NP40-soluble protein abundance (concentration: 0.5mM),NP40-soluble protein abundance (concentration: 1mM),NP40-soluble protein abundance (concentration: 2mM),NP40-soluble protein abundance (concentration: 4mM),NP40-soluble protein abundance (concentration: 6mM),NP40-soluble protein abundance (concentration: 8mM),NP40-soluble protein abundance (concentration: 10mM)
SPAG5 (UniProt Q96R06),1.007 ± 0.0097,0.989 ± 0.024,1.01 ± 0.011,1 ± 0.015,1.02 ± 0.035,1.01 ± 0.035,1.02 ± 0.081,1.03 ± 0.086
UniProt Q9BQ61 and related entries,1.03 ± 0.048,1.07 ± 0.1,1.022 ± 0.0085,0.993 ± 0.078,0.92 ± 0.11,1.02 ± 0.089,1.11 ± 0.069,1.1 ± 0.059
VPS25 (UniProt Q9BRG1),0.994 ± 0.034,0.963 ± 0.036,0.96 ± 0.046,0.964 ± 0.057,0.957 ± 0.057,0.924 ± 0.03,0.859 ± 0.036,0.861 ± 0.061
UniProt Q96Q89 and related entries,1.04 ± 0.027,1.05 ± 0.05,1.05 ± 0.054,1.03 ± 0.043,0.979 ± 0.031,0.997 ± 0.017,1.05 ± 0.044,0.978 ± 0.03
UHRF2 (UniProt Q96PU4),1.01 ± 0.024,1.03 ± 0.075,0.961 ± 0.048,1.03 ± 0.036,0.9935 ± 0.0042,1.01 ± 0.073,0.979 ± 0.061,0.968 ± 0.064
UniProt Q9BVP2 and related entries,1.31 ± 0.073,1.3 ± 0.094,1.34 ± 0.11,1.51 ± 0.19,1.68 ± 0.17,1.73 ± 0.13,1.77 ± 0.2,1.88 ± 0.072
UniProt Q96SU4 and related entries,0.982 ± 0.041,1.01 ± 0.042,0.911 ± 0.053,0.97 ± 0.049,0.909 ± 0.062,0.927 ± 0.061,0.926 ± 0.073,0.912 ± 0.066
AGPAT1 (UniProt Q99943),1.04 ± 0.034,0.963 ± 0.068,0.989 ± 0.11,0.957 ± 0.056,0.96 ± 0.021,0.95 ± 0.014,0.92 ± 0.043,0.871 ± 0.088
RIOK1 (UniProt Q9BRS2),1.11 ± 0.025,1.1 ± 0.043,1.147 ± 0.0086,1.18 ± 0.057,1.27 ± 0.079,1.25 ± 0.11,1.26 ± 0.077,1.31 ± 0.17
UniProt Q96S94 and related entries,0.934 ± 0.019,0.99 ± 0.053,0.955 ± 0.037,0.989 ± 0.092,0.933 ± 0.043,0.9476 ± 0.0035,0.965 ± 0.026,1.03 ± 0.11
PRPF18 (UniProt Q99633),0.947 ± 0.067,0.931 ± 0.081,0.949 ± 0.06,0.987 ± 0.093,0.995 ± 0.087,1.06 ± 0.097,1.02 ± 0.14,1.16 ± 0.044
JAKMIP1 (UniProt Q96N16),1.04 ± 0.034,1.11 ± 0.066,1.22 ± 0.078,1.26 ± 0.14,1.34 ± 0.18,1.37 ± 0.14,1.37 ± 0.15,1.39 ± 0.21
GFM1 (UniProt Q96RP9),1.03 ± 0.011,1.022 ± 0.009,0.969 ± 0.018,0.946 ± 0.027,0.951 ± 0.053,0.929 ± 0.051,0.931 ± 0.04,0.906 ± 0.059
UIMC1 (UniProt Q96RL1),1.02 ± 0.018,0.995 ± 0.013,1.01 ± 0.031,0.989 ± 0.015,1.03 ± 0.03,1.06 ± 0.048,1.04 ± 0.087,1.05 ± 0.075
UniProt Q9BRR6 and related entries,1.15 ± 0.16,0.951 ± 0.052,1.11 ± 0.19,1.04 ± 0.11,1.06 ± 0.04,1.03 ± 0.17,1.05 ± 0.053,1.04 ± 0.033
UniProt Q9BT22 and related entries,1.1 ± 0.035,1.1 ± 0.017,1.01 ± 0.016,1.03 ± 0.031,0.978 ± 0.062,0.984 ± 0.036,0.999 ± 0.035,0.968 ± 0.046
MIPEP (UniProt Q99797),1.01 ± 0.021,1.02 ± 0.03,0.928 ± 0.018,0.911 ± 0.029,0.912 ± 0.011,0.903 ± 0.043,0.868 ± 0.03,0.881 ± 0.049
ECSIT (UniProt Q9BQ95),1.05 ± 0.12,1.05 ± 0.094,1.01 ± 0.12,0.953 ± 0.058,1.09 ± 0.081,1.06 ± 0.047,1.03 ± 0.013,1.01 ± 0.048
HSD17B10 (UniProt Q99714),0.909 ± 0.13,0.922 ± 0.1,0.873 ± 0.1,0.885 ± 0.093,0.881 ± 0.1,0.869 ± 0.09,0.85 ± 0.095,0.864 ± 0.081
DCUN1D5 (UniProt Q9BTE7),0.984 ± 0.048,0.929 ± 0.07,0.918 ± 0.076,0.916 ± 0.077,0.948 ± 0.027,0.883 ± 0.056,0.891 ± 0.069,0.883 ± 0.074
UniProt Q9BZ95 and related entries,1.16 ± 0.028,1.11 ± 0.043,1.14 ± 0.048,1.2 ± 0.046,1.22 ± 0.041,1.28 ± 0.079,1.29 ± 0.081,1.25 ± 0.059
DHRS4 (UniProt Q9BTZ2),0.986 ± 0.016,0.968 ± 0.041,0.889 ± 0.016,0.907 ± 0.056,0.905 ± 0.058,0.877 ± 0.05,0.863 ± 0.059,0.828 ± 0.06
UniProt Q96RW7 and related entries,1.17 ± 0.29,1.11 ± 0.23,0.938 ± 0.16,1.06 ± 0.37,0.985 ± 0.2,0.889 ± 0.19,0.892 ± 0.13,0.924 ± 0.16
UniProt Q9BW83 and related entries,0.972 ± 0.019,1.05 ± 0.059,0.971 ± 0.02,0.958 ± 0.013,0.911 ± 0.036,0.95 ± 0.018,0.916 ± 0.016,0.944 ± 0.0068
MTMR9 (UniProt Q96QG7),1.08 ± 0.074,1.01 ± 0.046,0.939 ± 0.055,0.976 ± 0.077,0.984 ± 0.039,0.935 ± 0.042,0.94 ± 0.012,0.9 ± 0.031
UniProt Q9BV81,1.02 ± 0.068,0.951 ± 0.061,0.971 ± 0.037,1.01 ± 0.016,0.98 ± 0.067,0.966 ± 0.084,0.96 ± 0.076,0.992 ± 0.074
UniProt Q9BRR9-2|Q9BRR9-4|Q9BRR9-5|R4GN15,1.05 ± 0.059,1.01 ± 0.035,1.03 ± 0.097,0.98 ± 0.044,0.99 ± 0.035,0.982 ± 0.044,1.02 ± 0.061,1.03 ± 0.094

# Two consecutive records already listed:
Target,NP40-soluble protein abundance (concentration: 0.1mM),NP40-soluble protein abundance (concentration: 0.5mM),NP40-soluble protein abundance (concentration: 1mM),NP40-soluble protein abundance (concentration: 2mM),NP40-soluble protein abundance (concentration: 4mM),NP40-soluble protein abundance (concentration: 6mM),NP40-soluble protein abundance (concentration: 8mM),NP40-soluble protein abundance (concentration: 10mM)
DCUN1D5 (UniProt Q9BTE7),0.984 ± 0.048,0.929 ± 0.07,0.918 ± 0.076,0.916 ± 0.077,0.948 ± 0.027,0.883 ± 0.056,0.891 ± 0.069,0.883 ± 0.074
UniProt Q9BZ95 and related entries,1.16 ± 0.028,1.11 ± 0.043,1.14 ± 0.048,1.2 ± 0.046,1.22 ± 0.041,1.28 ± 0.079,1.29 ± 0.081,1.25 ± 0.059
